# Measured values reported in PubChem BioAssay AID1347426 (Functional Genomics Laboratory (NCATS/FGL), 2020).
# The whole screen tested about 31,000 sequences, of which about 1,400 (4.5%) were called active.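 The calls were made as follows: active = median seed-adjusted z-score above 1 or below -1; inactive = the rest.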 The list shows a part of the results.
# Assay: Novel Modifiers of Survival Motor Neuron (SMN) Protein: Gene Identification via Genome-wide siRNA Screen;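 also: luminescence tracks full-length SMN protein made from the SMN2 reporter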
# Conditions: HEK293T SMN2-luciferase reporter, siRNA knockdown, 72 h; actives lie on both sides
# Outline: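 Genome-wide siRNA screen (10418 genes, 3 siRNAs each, 1 pmol per well) by reverse transfection in HEK293T cells stably carrying an SMN2-luciferase reporter; luminescence after 72 hours, normalized to negative-control siRNA, log10-transformed, MAD-scored.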
row,Sequence,median seed-adjusted z-score
1,UCAUCAAUAUUAUCGGGAUTT against CYP4F11,inactive: 0.307
2,GAAUUCCCUUCUGAGUUAATT against ID2,inactive: 0.783
3,GCUCGUUACCUACAUAGUATT against ULK2,inactive: -0.0393
4,GAGCACGUGUAUACAUAUATT against ZNF586,inactive: -0.973
5,ACAGUUCUCUAUGACCUCATT against PLA2G4E,inactive: 0.266
6,GGUUUUACAUGACCUGCGATT against MAP3K7IP2,inactive: 0.0195
7,GGAAGUUCCUGAAUUUGUATT against EPX,inactive: 0.159
8,CAGUGAACUUGGGAUACAATT against TPMT,inactive: 0.19
9,GCAUAAUCCACCAUCAAUATT against BRAF,inactive: 0.271
10,GUGUCUCGAGUGUGAAAAATT against ZNF322B,inactive: 0.0433
11,CCACCAAAGUUUCCGCAGATT against CDH11,inactive: -0.457
12,GAGUCUUACUGUAAGCAGUTT against INPP5B,inactive: 0
13,GAACCUCAGUCAAAUCGAUTT against OXSR1,inactive: -0.0682
14,GCCGUAGUGUAAUGAUUGATT against ILK,inactive: -0.231
15,GCAAGUUGGAAGACCGGAATT against XPO5,inactive: -0.031
16,GAAACUAGUUGUGAUGAUATT against OSGEPL1,inactive: -0.708
17,CCAAAGAGGUGGGAUUUUUTT against HPDL,inactive: 0.483
18,GAACCUGAGCGACCUCUAUTT against LRG1,inactive: 0.668
19,CACAGCAACUUCAAGAAGATT against BTN2A2,inactive: -0.0599
20,GGACUAUGGUGUAUACCUATT against PRDX4,inactive: -0.188
21,GAUAGUACUUGGGAACUAATT against CHD9,inactive: 0.218
22,ACAAGUUUCAAACAGAGUATT against DUSP7,inactive: 0

row,Sequence,median seed-adjusted z-score
1,CAGUUUUAUUCUUGCUCUATT against SEMA4B,inactive: 0.185
2,GGAUAUCUUUUAUCUACAATT against DHX35,inactive: -0.066
3,GUGUCAACAUGGUUCAUAUTT against TPH2,inactive: 0.275
4,CUCUGGUCCUUAUCAGGAATT against AP4S1,inactive: -0.498
5,CUGUCGAGGCUGCAACAAATT against RNF166,inactive: -0.3
6,GAGAGUCAGAUGAACUGUATT against GPR37,inactive: -0.0447
7,GCGAAUGAGUGGUAGAGGATT against ARHGAP21,inactive: 0.229
8,GAACGGUACCUUAGUGAUATT against MXRA5,inactive: 0.104
9,CGGGUUACCUGGAACUACATT against COL22A1,inactive: 0.3
10,UCACUAUGCUGGAUGAACATT against SNAP23,inactive: 0.31
11,GGAUUCUCAGUUACACUUATT against SLC25A3,inactive: -0.495
12,GAUCCAGUAUUGUUAGCAATT against RAPGEF2,inactive: -0.0715
13,GGAAAUGGAUGAUAACCAATT against GPR151,inactive: -0.263
14,CUGUGAAUGUUGAUGUCCATT against SLC3A1,inactive: -0.33
15,GUAGAUAUGUGGAAACGGATT against FAM48A,inactive: -0.506
16,GAUCUUGGUUUGAUUCGUATT against RASGRP3,inactive: 0.0202
17,ACUUCUACACGUUUCCAAATT against THAP11,active: -1.36
18,CUAUGUAUGUGACCCGUGATT against CDKL5,inactive: -0.256
19,GCGUCCAAUCAGAACCAAATT against SNAI3,inactive: -0.195
20,GCCCUUUAAAUGCCCUGAATT against ZNF629,inactive: 0.0602
21,CCUCCAUUCUGUGCGUUCUTT against GPR148,inactive: 0
22,CCACAAUUUUAAUCAGGCATT against PCBD2,inactive: -0.0549

row,Sequence,median seed-adjusted z-score
1,GCCUUUUUAGAUUGAGAGATT against MAFF,inactive: 0.42
2,CGACUUCUCAGAAGGCAGATT against GATA4,inactive: -0.24
3,CGAUUUUAAUCUUCGUGUUTT against IPP,inactive: 0.298
4,GUACUUCCAUAGACAGGAATT against CECR1,inactive: 0.00187
5,CAGAGACCCUUGAUAAACUTT against PIK3AP1,inactive: 0.0678
6,CCAAUUUCCUUAUACGUUUTT against ATP10A,inactive: -0.435
7,GGCAUUACAUCAUCCCACATT against GIT1,inactive: -0.307
8,GCAUAAUACCAUCACUACUTT against CREB5,inactive: -0.0542
9,GGGACCAAAAUCAAUGAAATT against PCBP3,inactive: -0.0373
10,GAGACUCUGUGGACGUAAATT against ZNF101,inactive: 0.336
11,CCAUGUUCAUCAAAACUCUTT against ARHGAP1,active: -1.14
12,CUAUGAGGAAUGUCGCAGATT against XPO1,active: 1.12
13,GGACUUAUUGGGUUAUUAUTT against FOXE3,inactive: -0.451
14,GACCUGGGCUUAGACAGUUTT against NDUFAB1,inactive: -0.282
15,CCAUUGCGUUUUUCACCAUTT against PCDH20,inactive: 0.0594
16,CUACUAUACCUGGACCUCATT against FLII,inactive: -0.353
17,CGGUGACUGCGGUGAAGAATT against ILVBL,inactive: 0.343
18,GCUGAACAUGAAAAGCUAUTT against ZMYND17,inactive: -0.00314
19,GAAUGAUGUAUUUAGAUCATT against FCRL4,inactive: -0.39
20,GAAGCGCAGGCAAAUCAAUTT against FXYD2,inactive: -0.383
21,GCAGAGGUUUGAAUCCUAUTT against EIF3L,inactive: 0.656
22,CCUUUGUGCUGGGAUAAAATT against ITLN2,inactive: 0.00733

row,Sequence,median seed-adjusted z-score
1,CGGCAGCUUGGGAAAAAGATT against GPRC5B,inactive: 0
2,CAUCAAGUUUGACAAGAUUTT against C1QTNF2,inactive: 0.0697
3,UGAUAGCUUUGAUUCUGCATT against GNG2,inactive: 0.369
4,CGUAUGCAUUUCACAAUAATT against SERPINB10,inactive: 0.00387
5,GCUGUGCUCUUGAAGAUCATT against BAG2,inactive: -0.87
6,GGAUACAUUAAGCUAAUAATT against PRMT3,inactive: 0.00875
7,GAUUACGGCUUUACCGAAATT against ZIC4,inactive: 0.512
8,GCCUAUGACCCAAAUUAUATT against PPTC7,inactive: 0.49
9,CCGUGGGUCUCUAACUUCATT against SEMA5B,inactive: 0.641
10,CAAUCUUCGUGUUCACUUUTT against RPL17,inactive: -0.13
11,GGAUGACUACAUCAUUAGATT against OFD1,inactive: 0
12,CGGUGAAAGCGAAUUCCUATT against CD40,inactive: 0.275
13,GGCUUUGCGCUGCAAAUCCTT against LYPD1,inactive: -0.0713
14,GGAGGACAGUGCUUCAAGATT against FGD5,inactive: -0.0561
15,GGAUAUGGGUGGGAGCGAATT against NFKBIL1,inactive: 0.282
16,CCUGAAUCGUGUGCACUUATT against SSBP1,inactive: -0.456
17,GGAAGGAGCUGUCACGCAATT against MED26,active: -1.86
18,CGAUUUUAUCUGUCAGAAUTT against FBLN1,inactive: 0.518
19,GGUUCAGCUUUGGGUCAAATT against NUP214,inactive: 0.074
20,GUCCUGAAGUCACUCCGAUTT against FUT10,inactive: -0.629
21,UUUUUGAUGUGGACUCAAATT against USP18,inactive: -0.326
22,AAGACUCGAGAGUACAAAATT against SLC25A11,inactive: -0.731

# As a short view, part of the list above:
row,Sequence,median seed-adjusted z-score
8,GCCUAUGACCCAAAUUAUATT against PPTC7,inactive: 0.49
9,CCGUGGGUCUCUAACUUCATT against SEMA5B,inactive: 0.641
10,CAAUCUUCGUGUUCACUUUTT against RPL17,inactive: -0.13

# 6 entries drawn at random from the list so far, as already listed:
row,Sequence,median seed-adjusted z-score
20,GUCCUGAAGUCACUCCGAUTT against FUT10,inactive: -0.629
21,UUUUUGAUGUGGACUCAAATT against USP18,inactive: -0.326
18,CGAUUUUAUCUGUCAGAAUTT against FBLN1,inactive: 0.518
8,GCCUAUGACCCAAAUUAUATT against PPTC7,inactive: 0.49
14,GGAGGACAGUGCUUCAAGATT against FGD5,inactive: -0.0561
3,UGAUAGCUUUGAUUCUGCATT against GNG2,inactive: 0.369

# (next part)

row,Sequence,median seed-adjusted z-score
1,CAACAACCGCUGGAGCUUATT against STAT2,inactive: 0
2,GCAUCGUUGAGAAUCCACATT against GMPPA,inactive: 0.619
3,UGACCAUGCUGAUAAACUGTT against IFNA1,inactive: -0.625
4,CCUCACGUGUGGGACCUUUTT against LIMK1,inactive: -0.428
5,AGUUUGUCGUGGUUAUAAATT against DYNLL1,inactive: 0
6,GCUAAGAAAAGGUACUGAUTT against GBP2,inactive: -0.263
7,GCCGACGAAUGUUAAUGAATT against FAM98B,inactive: -0.0162
8,GCAUGGAUCUGAUCCGUUUTT against TAOK3,inactive: -0.594
9,GGAUCGAUCCAGCUUACAATT against ACACB,inactive: 0.31
10,AGGUUUAUGUGACCAAGCATT against KCTD8,inactive: 0.0212
11,CAGAGGAUUUGGAAUCGUUTT against CYP2C19,inactive: -0.0674
12,CUGUUUAACUGUGAGAUCATT against ANP32E,inactive: -0.0648
13,CGACUUCUAGAUGCAGUUATT against GMDS,inactive: 0
14,CUGAGAUACUGCAAGCUGATT against IL5RA,inactive: -0.357
15,UCUCUACAACAAAAUUUAATT against POLR2L,active: -1.19
16,CAGAACACCUGAACUCAAATT against ZDHHC9,inactive: -0.495
17,ACAUCUACGUGCUCAACCATT against B4GALT7,inactive: -0.00294
18,GGAUCCAUCUUAUCAGGCATT against FMO4,inactive: -0.359
19,AGACAUAUGCUUUUCCAUUTT against HTR3B,inactive: 0.153
